Assay results taken from publication PMC7176149.
These are yes or no findings as the source states them, for the method shown. In cells and extracts the contact can be indirect.

Amino acid sequences for entries named in this document (tags omitted). A change or cut given only in a name is not applied to a line headed by its entry.
UniProt Q14738: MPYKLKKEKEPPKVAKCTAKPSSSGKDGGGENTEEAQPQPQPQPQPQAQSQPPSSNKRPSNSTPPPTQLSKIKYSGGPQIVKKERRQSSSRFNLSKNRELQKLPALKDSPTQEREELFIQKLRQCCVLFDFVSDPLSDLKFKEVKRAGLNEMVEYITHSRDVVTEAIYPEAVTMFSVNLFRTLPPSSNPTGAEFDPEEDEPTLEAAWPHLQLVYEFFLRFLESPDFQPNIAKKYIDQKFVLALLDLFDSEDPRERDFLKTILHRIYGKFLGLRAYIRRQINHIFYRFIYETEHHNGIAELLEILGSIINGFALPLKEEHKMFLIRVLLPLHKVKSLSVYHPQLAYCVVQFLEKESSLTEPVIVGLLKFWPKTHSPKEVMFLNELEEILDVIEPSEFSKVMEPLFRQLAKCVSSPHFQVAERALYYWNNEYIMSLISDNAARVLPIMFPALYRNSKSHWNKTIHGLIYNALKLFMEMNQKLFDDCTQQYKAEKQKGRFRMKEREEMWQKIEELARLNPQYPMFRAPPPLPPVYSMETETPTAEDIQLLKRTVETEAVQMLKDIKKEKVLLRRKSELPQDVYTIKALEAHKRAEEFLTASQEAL
UniProt P19517: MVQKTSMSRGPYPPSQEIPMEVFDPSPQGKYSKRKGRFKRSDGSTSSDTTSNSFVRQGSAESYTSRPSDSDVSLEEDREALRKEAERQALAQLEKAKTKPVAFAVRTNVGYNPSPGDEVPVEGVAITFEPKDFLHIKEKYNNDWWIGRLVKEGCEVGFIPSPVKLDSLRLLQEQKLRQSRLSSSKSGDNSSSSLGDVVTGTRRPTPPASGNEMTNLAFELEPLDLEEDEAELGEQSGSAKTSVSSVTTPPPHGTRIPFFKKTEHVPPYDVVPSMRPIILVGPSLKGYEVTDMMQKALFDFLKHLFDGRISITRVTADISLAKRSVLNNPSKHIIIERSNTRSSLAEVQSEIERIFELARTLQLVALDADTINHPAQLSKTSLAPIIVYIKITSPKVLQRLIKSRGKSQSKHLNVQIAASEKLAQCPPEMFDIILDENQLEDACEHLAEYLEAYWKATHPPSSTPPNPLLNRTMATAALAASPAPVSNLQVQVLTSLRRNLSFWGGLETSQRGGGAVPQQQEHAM

Target: PPP2R5D (B56δ), regulatory subunit of protein phosphatase 2A (human (endogenous in HEK293T)) (UniProt Q14738)
Assay: co-IP; endogenous PPP2R5D precipitated with anti-PPP2R5D antibody on Protein G Dynabeads from lysates of HEK293T cells transfected with a V5-tagged β subunit; 50 mM Tris-HCl pH 8, 120 mM NaCl, 1 mM EDTA, 0.5% Nonidet P40; 2 h at 4°C; blot with anti-V5-HRP and anti-β4

“V5-tagged calcium channel β1a subunit (rabbit) (from UniProt P19517 1-524)” was tested, and the binding was “no binding”.
